{
  "sequences": {"note": "Chains of the proteins cited; added tags and fusions are not shown. Lines headed by an entry give the natural chain unless they say otherwise; changes in a name come on top.", "UniProt Q9Z1T6": "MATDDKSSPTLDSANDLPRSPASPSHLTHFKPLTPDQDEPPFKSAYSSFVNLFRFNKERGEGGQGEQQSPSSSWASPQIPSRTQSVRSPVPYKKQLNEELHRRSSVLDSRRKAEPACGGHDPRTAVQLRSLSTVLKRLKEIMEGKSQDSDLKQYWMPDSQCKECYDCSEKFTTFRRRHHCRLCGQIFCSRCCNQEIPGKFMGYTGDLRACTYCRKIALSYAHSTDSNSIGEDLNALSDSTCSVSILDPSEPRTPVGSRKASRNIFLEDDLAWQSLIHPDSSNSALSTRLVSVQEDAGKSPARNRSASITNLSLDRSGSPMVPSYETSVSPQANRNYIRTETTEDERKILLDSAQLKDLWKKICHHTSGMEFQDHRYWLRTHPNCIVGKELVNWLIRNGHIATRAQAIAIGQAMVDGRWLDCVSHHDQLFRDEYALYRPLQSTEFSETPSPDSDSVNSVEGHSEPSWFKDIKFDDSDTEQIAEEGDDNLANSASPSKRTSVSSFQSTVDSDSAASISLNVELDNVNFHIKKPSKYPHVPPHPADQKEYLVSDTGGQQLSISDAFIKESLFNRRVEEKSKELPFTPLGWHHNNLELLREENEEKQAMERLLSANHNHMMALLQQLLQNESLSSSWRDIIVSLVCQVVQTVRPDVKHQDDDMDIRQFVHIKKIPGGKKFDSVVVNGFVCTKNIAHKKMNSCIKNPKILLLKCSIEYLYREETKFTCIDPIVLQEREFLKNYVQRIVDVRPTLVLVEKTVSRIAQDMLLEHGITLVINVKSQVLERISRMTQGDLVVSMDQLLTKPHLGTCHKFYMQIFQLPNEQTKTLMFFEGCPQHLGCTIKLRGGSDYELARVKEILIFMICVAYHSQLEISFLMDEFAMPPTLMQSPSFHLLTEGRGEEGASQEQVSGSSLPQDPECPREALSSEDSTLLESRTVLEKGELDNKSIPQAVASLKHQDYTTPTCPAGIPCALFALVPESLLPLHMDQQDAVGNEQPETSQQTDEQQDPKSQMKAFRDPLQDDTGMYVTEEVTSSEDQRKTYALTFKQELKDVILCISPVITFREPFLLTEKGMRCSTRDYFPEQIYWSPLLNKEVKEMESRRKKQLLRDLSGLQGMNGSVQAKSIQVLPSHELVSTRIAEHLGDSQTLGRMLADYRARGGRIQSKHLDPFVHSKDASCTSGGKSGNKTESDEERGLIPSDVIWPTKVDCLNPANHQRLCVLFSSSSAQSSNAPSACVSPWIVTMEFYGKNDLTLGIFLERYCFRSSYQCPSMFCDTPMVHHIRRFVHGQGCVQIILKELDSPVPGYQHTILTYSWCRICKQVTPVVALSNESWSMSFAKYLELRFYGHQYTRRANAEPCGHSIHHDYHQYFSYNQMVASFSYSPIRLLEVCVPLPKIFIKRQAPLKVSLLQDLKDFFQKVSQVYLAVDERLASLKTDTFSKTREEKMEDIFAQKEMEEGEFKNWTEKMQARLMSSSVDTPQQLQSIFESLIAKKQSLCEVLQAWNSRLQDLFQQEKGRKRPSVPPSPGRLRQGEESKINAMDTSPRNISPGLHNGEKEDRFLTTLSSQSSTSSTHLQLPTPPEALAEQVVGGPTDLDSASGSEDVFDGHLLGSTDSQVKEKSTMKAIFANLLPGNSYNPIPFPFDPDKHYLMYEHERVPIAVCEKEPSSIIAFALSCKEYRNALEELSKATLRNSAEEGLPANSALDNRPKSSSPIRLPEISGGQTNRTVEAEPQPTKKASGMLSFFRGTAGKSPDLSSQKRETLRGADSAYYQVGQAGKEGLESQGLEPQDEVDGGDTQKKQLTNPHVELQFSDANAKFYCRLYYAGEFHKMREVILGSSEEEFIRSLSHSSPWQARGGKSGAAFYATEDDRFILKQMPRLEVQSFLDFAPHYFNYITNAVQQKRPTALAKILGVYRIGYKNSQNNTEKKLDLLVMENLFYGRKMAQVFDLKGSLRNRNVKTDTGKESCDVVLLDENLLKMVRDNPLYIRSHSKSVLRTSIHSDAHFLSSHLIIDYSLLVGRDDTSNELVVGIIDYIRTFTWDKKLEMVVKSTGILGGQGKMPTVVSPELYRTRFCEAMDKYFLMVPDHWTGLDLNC"},
  "source": "patent US20260053801A1",
  "about": "“METHOD FOR TREATING AUTOPHAGY DEPENDENT CANCER WITH A PIKFYVE INHIBITOR” (The Regents of the University of Michigan, priority 2023, published 2026)",
  "key": {"[1]": {"tested_on": "trametinib- and gemcitabine-resistant PDAC cell lines", "experiment": "Cell viability of MIA-PaCa-2 and trametinib- or gemcitabine-resistant MIA-PaCa-2", "type": "cell-based, human", "conditions": "MIA-PaCa-2, TramR and GemR"}, "cell surface MHC-I": {"tested_on": "cell surface MHC-I", "experiment": "Flow cytometry of cell surface MHC-I in mouse cancer lines", "type": "cell-based", "conditions": "pancreatic (KPC1361); extended to 4T1, B16-F10, LLC"}, "[2]": {"tested_on": "KC model (KrasG12D/+; p48Cre)", "experiment": "KC genetically engineered mouse model of PDAC", "type": "in vivo", "conditions": "30 mg/kg"}, "[3]": {"tested_on": "UM-19 primary KRAS G12D PDAC CDX", "experiment": "UM-19 primary KRAS G12D PDAC CDX (pCDX) subcutaneous model", "type": "in vivo, human", "conditions": "ESK981 30 mg/kg QD PO or trametinib 1 mg/kg QD PO alone"}, "mouse PIKfyve protein": {"biological_target": "T1, mouse PIKfyve protein (Mus musculus, UniProt Q9Z1T6)", "T1 construct": "endogenous in cells; host or cells: 7940B (murine KPC pancreatic cancer cell line)", "experiment": "Cellular Thermal Shift Assay (CETSA) in 7940B cells", "type": "binding", "conditions": "1000 nM, 2 hours", "protocol": "CETSA was performed according to previously described protocols^71. Briefly, 7940B cells were seeded overnight and were subsequently treated with DMSO, ESK981 (1000 nM), or apilimod (1000 nM) for 2 hours. Cells were then harvested and made into single-cell suspensions of 1×10^6 cells each in […] of PBS containing protease inhibitors. The suspensions were then subjected to heating and cooling cycles (two cycles of 3-minute heating followed by 3-minute cooling at room temperature) using a thermal cycler. Cells were then lysed with three cycles of freeze-thawing in liquid nitrogen. Lysates were then analyzed using immunoblot analysis as previously described."}, "[4]": {"tested_on": "NCI-H660 NEPC cell line-derived xenografts", "experiment": "NCI-H660 NEPC xenograft in SCID mice", "type": "in vivo", "conditions": "30 mg/kg five days per week", "protocol": "(§1) For xenograft studies, 6-10-week-old CB17 severe combined immunodeficiency (SCID) mice obtained from the University of Michigan breeding colony were used. For syngeneic studies, 6-10-week-old C57BL6 mice obtained from Jackson Laboratories were used. Subcutaneous tumors were established at both sides of the dorsal flank of the mice by injecting 1×10^6 cells in […] of 50:50 Matrigel and serum-free media. Tumors were measured 2-3 times per week using digital calipers following the formula (π/6) (L×W2), where L=length and W=width of the tumor. At the end of the studies, mice were sacrificed, and tumors extracted and weighed.\nGiven the hypoxic and nutrient-depleted environments of NEPC Guo et al., Nat Commun. 2019; 10(1):278; Qi et al., Cancer Cell. 2010; 18(1):23-38., it was hypothesized that NEPC may be dependent on autophagy and sensitive to PIKfyve inhibition by ESK981. To test this NEPC prostate patient-derived xenograft (PDX) of NCI-H660, LTL331R, and LTL610 were subcutaneously grown into non-castrated SCID mice until tumors reached an average size of 100 mm^3, after which mice were randomized into two groups. Mice in each group received either vehicle or 30 mg/kg ESK981 five days per week. […] The anti-tumor effect of ESK981 was in turn confirmed in two additional NEPC PDX models including LTL331R (FIGS. 12-14) and LTL610 xenografts (FIG. 15-17). […]"}, "[5]": {"tested_on": "autophagic flux in 7940B cells", "experiment": "GFP-LC3-RFP-LC3ΔG autophagic flux probe assay in 7940B cells", "type": "cell-based, mouse", "conditions": "apilimod 100 nM, ESK981 1000 nM, chloroquine 50 μM", "excerpt": "Generation of the autophagic flux probe in 7940B, Panc 04.03, and iKRAS was done according to the original author's instructions. Kaizuka, T. et al., Mol Cell 64, 835-849, doi:10.1016/j.molcel.2016.09.037 (2016). Briefly, cells were infected with pMRX-IP-GFP-LC3-RFP-LC3DG, which was a gift from Noboru Mizushima (Addgene plasmid #84572; http://n2t.net/addgene:84572; RRID:Addgene_84572). Following puromycin selection, single-cell clones were expanded and genotyped to ensure the absence of homologous recombination between two LC3 fragments during retrovirus integration.\n15,000 cells were seeded in 96-well plates. After overnight incubation, cells were treated with the indicated compounds for 24 hours. […] Fluorescent signals were detected using the Infinite M1000 Pro plate reader (Tecan)."}, "LTL331R NEPC PDX": {"tested_on": "LTL331R NEPC PDX", "experiment": "LTL331R NEPC PDX in SCID mice", "type": "in vivo, mouse", "conditions": "30 mg/kg five days per week"}, "[6]": {"tested_on": "KPC-derived KPC-1344 cells allograft", "experiment": "KPC-1344 subcutaneous syngeneic allograft in C57BL6 mice", "type": "in vivo, mouse", "conditions": "30 mg/kg per day PO"}, "DU145 tumors": {"tested_on": "DU145 tumors", "experiment": "DU145 AR-negative prostate cancer xenograft (compared to VCaP)", "type": "in vivo, mouse"}, "[7]": {"tested_on": "MIA-PaCa-2 human PDAC cell line xenograft", "experiment": "MIA-PaCa-2 PDAC xenograft (CDX) in SCID mice", "type": "in vivo", "protocol": "as §1\nTerminal dUTP Nick End Labeling (TUNEL) staining was performed with an In Situ Cell Death Detection Kit (TMR Red #12156792910; Roche Applied Science) following the manufacturer's instructions. Briefly, fixed sections were permeabilized using Triton X-100 followed by PBS washing. The labelling reaction was performed at 37° C. for 1 hour by addition of the reaction buffer containing enzymes. Images were acquired using a Zeiss Axiolmager M1 microscope.\nGiven the enhanced autophagy dependence of PDAC and the urgent need for new therapies, ESK981 was investigated for efficacy in combatting this type of cancer. […] Tumors were grown until they reached an average size of 100 mm^3, after which mice were randomized into two groups that were treated with vehicle or 30 mg/kg ESK981 five days a week."}, "MHC-I": {"tested_on": "MHC-I", "experiment": "MHC-I levels (western blot) in cell lines derived from KPC mice", "type": "cell-based, mouse", "conditions": "multiple cell lines derived from KPC mice"}, "7940B cells": {"tested_on": "7940B cells", "experiment": "Targeted metabolomics in 7940B cells", "type": "cell-based, mouse", "conditions": "apilimod 100 nM, ESK981 1000 nM", "protocol": "Polar metabolites from samples treated in biological triplicates were extracted using 80% v/v methanol/water and normalized using protein quantification from an additional sample from each condition. Equal estimated amounts of metabolites were dried using a SpeedVac vacuum concentrator, reconstituted in 50% v/v methanol in water, and analyzed by LC-MS as previously described. Data were analyzed as previously described with the Agilent Masshunter Workstation Quantitative Analysis for QQQ version 10.1 Build 10.1.733.0. No post-detection normalization was performed to avoid assuming linearity of signal. Heatmaps were generated using the Morpheus Matrix Visualization and analysis tool (https://software.broadinstitute.org/morpheus)."}},
  "note": "Entries after “also recorded” stand apart in the source; their conditions may differ. For at least one compound, name, drawing or mass did not settle the structure.",
  "data": [
    {"smiles": "CC(C)Cn1c2ccc(Nc3ncccn3)cc2c2c3c(c4c(c21)CCc1nn(C)cc1-4)C(=O)NC3", "note": "[ESK981, 13-isobutyl-4-methyl-10-(pyrimidin-2-ylamino)-1,2,4,7,8,13-hexahydro-6H-indazolo[5,4-a]pyrrolo[3,4-c]carbazol-6-one]", "values": [
      {"measurement": "inhibition of cell growth", "setting": "[1]", "result": "inhibit cell growth at similar potencies across cell lines"},
      {"measurement": "cell surface expression of MHC-I", "setting": "cell surface MHC-I", "result": "increased cell surface expression of MHC-I"},
      {"measurement": "pancreatic mass weight", "setting": "[2]", "result": "reduced pancreatic mass weight to that of wild-type mice"},
      {"measurement": "tumor outgrowth under single-agent therapy", "setting": "[3]", "result": "adapt and outgrow"},
      {"measurement": "binding / stabilization of PIKfyve (CETSA)", "setting": "mouse PIKfyve protein", "result": "bind to mouse PIKfyve protein; also recorded: stabilization of PIKfyve"},
      {"measurement": "tumor growth (volume, weight)", "setting": "[4]", "result": "strong tumor inhibitory effects"},
      {"measurement": "basal autophagic flux", "setting": "[5]; 24 hours", "result": "decreased"},
      {"measurement": "autophagic flux induced by torin-1", "setting": "[5]; torin-1 100 nM", "result": "decreased"},
      {"measurement": "anti-tumor effect", "setting": "LTL331R NEPC PDX", "result": "confirmed"},
      {"measurement": "tumor growth and weight at the endpoint", "setting": "[6]", "result": "reduced tumor growth and weight"},
      {"measurement": "cell death (TUNEL assay)", "setting": "DU145 tumors; 30 mg/kg, DU145 tumors compared to VCaP", "result": "massive cell death"},
      {"measurement": "tumor growth curve", "setting": "DU145 tumors; DU145 xenograft", "result": "tumor regression"},
      {"measurement": "tumor growth curve", "setting": "[7]; 30 mg/kg five days a week", "result": "remarkable prevention of tumor growth"},
      {"measurement": "growth of CDX tumors", "setting": "[7]; 30 mg/kg per day PO", "result": "completely suppressed the growth"},
      {"measurement": "apoptosis (TUNEL staining)", "setting": "[7]; after 5 days of treatment", "result": "induced substantial apoptosis"},
      {"measurement": "tumor growth upon stopping treatment", "setting": "[7]; after ceasing ESK981", "result": "began to proliferate again"},
      {"measurement": "levels of MHC-I", "setting": "MHC-I", "result": "increased levels of MHC-I"},
      {"measurement": "glycolytic metabolites", "setting": "7940B cells; eight hours", "result": "dramatic depletion of glycolytic metabolites"},
      {"measurement": "citrate level", "setting": "7940B cells; three hours", "result": "decrease in citrate"}
    ]}
  ]
}
